# Reference: patent publication US20240302348A1
# No constants are given. Whether binding was seen depends on the method and setting. Some results given as binding are weak or reduced against the parent protein; the word gives no strength.
# T1: human B7-H4 (V-set domain-containing T-cell activation inhibitor 1) (human) (UniProt Q7Z7D3)
# T1 sequence: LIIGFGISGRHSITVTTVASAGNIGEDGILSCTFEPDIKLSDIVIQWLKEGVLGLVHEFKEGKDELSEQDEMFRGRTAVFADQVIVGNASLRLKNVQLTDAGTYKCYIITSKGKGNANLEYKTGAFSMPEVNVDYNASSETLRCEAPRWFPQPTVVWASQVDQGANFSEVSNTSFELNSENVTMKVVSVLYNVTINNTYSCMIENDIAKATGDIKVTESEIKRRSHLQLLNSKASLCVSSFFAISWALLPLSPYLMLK
# Biological target: T1, human B7-H4 (V-set domain-containing T-cell activation inhibitor 1) (human)
# Assay: IHC for bound IgG, membrane optical density, xenograft tumors
binder,measurement,value
"the ADC without payload (anti-B7H4 ADC antibody without cytotoxic payload) (antibody, human IgG1, kappa, V domains shown) VH: QVQLQQWGAGLLKPSETLSLACTVYGGSFSGYYWNWIRQPPGKGLEWIGEINHSGSTSYNPSLKSRVTISVDTSKNQFSLKLSSVTAADTAVYYCARVLYNWNVDSWGQGTLVTVSS VL: DIQMTQSPSSLSASVGDRVTITCRASQDIRNDVGWYQQKPGKAPKRLIYAASRLQSGVPSRFSGSGSGTEFTLTISSLQPEDFATYYCLQHNSYPRTFGQGTKVEIKR",binding,binds
